Results taken from publication PMC3406013.
These are yes or no findings as the source states them, for the method shown. In cells and extracts the contact can be indirect. Some entries that bind do so weakly or less than the wild type.

By UniProt entry, the sequences of proteins in these tests, tags left out. Where a name states a change or a piece, a line headed by the entry shows the natural chain unless it says otherwise.
UniProt Q7Z434: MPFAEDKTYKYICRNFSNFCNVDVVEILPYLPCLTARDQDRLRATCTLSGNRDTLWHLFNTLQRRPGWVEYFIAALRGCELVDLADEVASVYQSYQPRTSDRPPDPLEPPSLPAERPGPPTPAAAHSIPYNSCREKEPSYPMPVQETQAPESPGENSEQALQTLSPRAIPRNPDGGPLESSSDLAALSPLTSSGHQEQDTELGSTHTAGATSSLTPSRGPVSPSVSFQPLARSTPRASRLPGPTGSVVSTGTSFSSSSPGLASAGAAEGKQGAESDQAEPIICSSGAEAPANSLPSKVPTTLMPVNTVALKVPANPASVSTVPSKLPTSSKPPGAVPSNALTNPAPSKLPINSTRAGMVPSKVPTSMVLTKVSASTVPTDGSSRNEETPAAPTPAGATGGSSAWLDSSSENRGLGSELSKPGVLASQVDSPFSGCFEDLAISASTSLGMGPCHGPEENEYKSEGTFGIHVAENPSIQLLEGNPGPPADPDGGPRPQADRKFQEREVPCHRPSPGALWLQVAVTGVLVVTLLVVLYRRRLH
UniProt Q86WV6: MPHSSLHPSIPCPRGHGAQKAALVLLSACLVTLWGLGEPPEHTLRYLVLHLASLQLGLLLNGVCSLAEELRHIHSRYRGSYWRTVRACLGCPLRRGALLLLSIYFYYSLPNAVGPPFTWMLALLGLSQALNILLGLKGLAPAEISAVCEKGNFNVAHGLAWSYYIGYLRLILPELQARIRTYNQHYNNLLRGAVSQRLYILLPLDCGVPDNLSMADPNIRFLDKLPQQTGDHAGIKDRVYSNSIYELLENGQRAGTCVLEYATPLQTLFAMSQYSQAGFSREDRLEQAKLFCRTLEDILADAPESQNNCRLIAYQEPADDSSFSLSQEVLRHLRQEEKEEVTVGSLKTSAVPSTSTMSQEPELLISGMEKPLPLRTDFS

Biological target: Flag-tagged MAVS Y9F mutant (human) (UniProt Q7Z434)
Assay: co-IP; HEK293T cotransfected with Flag-MAVS WT or Y9F and a Myc-tagged partner (RIG-I 2Card, STING, MAVS WT or Y9F); after 48 h lysates (1% Nonidet P-40) immunoprecipitated with anti-Flag; immunoblot with anti-Myc

Substance: Myc-tagged STING (stimulator of interferon genes) (from UniProt Q86WV6 1-379)
- binding: binds
